Test results taken from US20250009740A1, “METHODS AND COMPOSITIONS FOR TARGETING ALTERNATIVE METABOLISM ALONG WITH FLT3 INHIBITOR-MEDIATED ANTILEUKEMIC ACTIONS” (Ohio State Innovation Foundation, priority 2021, published 2025).
At least one compound was matched to its structure with a doubt left.

Test system: shRNA-stable MOLM-13 cells
Assay: MTS dose-response of shRNA-stable cells to gilteritinib
Assay type: cell-based, human

CCc1nc(C(N)=O)c(Nc2ccc(N3CCC(N4CCN(C)CC4)CC3)c(OC)c2)nc1NC1CCOCC1 [gilteritinib]
cell viability compared to scramble control (knockdown of CDK7, gilteritinib 120 hours): marginal impact on cell viability
IC50 of gilteritinib compared with scrambled or parental controls (knockdown of CDK9, DHODH or PRMT5, 2-25 nM, 120 hours): remarkably lower
